In PubChem BioAssay AID272 (DTP/NCI, 2004):
The list is a part of this screen's results and no random one: it gathers tests that were run many times, whatever their T/C, doses with no T/C, and many T/C values between a quarter and a half above the control. Other doses and runs of a compound stand elsewhere. T/C gives the treated animals as a percentage of the vehicle group. Some doses have a count of surviving animals in place of a T/C: the source files T/C as zero there, which appears to mark a toxic dose or a test without result, not a measured value. Some doses without a T/C left all or most animals alive at the check, yet need not have been tolerated: the source hardly ever lists a survival T/C far under the control, and the zero likely stands for such cases as well. Survivors were counted at the toxicity check, usually on the fifth day, unless a day is given; later deaths do not show. Schedules are NCI's codes, taken here to give the interval after Q, in days (D) or hours (H), and the number of doses after X. Signs of the kind (2×) say how often a value occurs here. Some entries were tested several times; the values are given in rising order. For survival time, the PubChem record calls one and a half times the control and up active, and a quarter to a half above the control has no call in these data; cut-offs in other NCI protocols can differ. Some T/C values carry the count of animals alive at the toxicity check (mostly the fifth day); without a count, all were alive then.

Test system: Lewis lung carcinoma i.m., BDF1 mice, T/C %
Assay: NCI In Vivo Anticancer Drug Screen. Data for tumor model Lewis Lung Carcinoma (intramuscular) in B6D2F1 (BDF1) mice
Experimental: The antitumor activity of compounds was measured in mice bearing transplantable tumors. Survival or tumor size were measured and the results are expressed as the measurement made in the treated group (T) divided by the measurement made in the vehicle treated control group (C). The tumor model used in this assay is Lewis Lung Carcinoma (intramuscular) in B6D2F1 (BDF1) mice

[1] = T/C endpoint: median survival time, dose: 100.0 mg/kg/injection, schedule: Q01DX011 (ip), vehicle: Klucel (hydroxypropylcellulose) (HPC), higher T/C = longer survival
[2] = T/C endpoint: median survival time, dose: 400.0 mg/kg/injection, schedule: Q04DX003 (ip), vehicle: Klucel (hydroxypropylcellulose) (HPC), higher T/C = longer survival

## OC(CBr)C(O)C(O)C(O)CBr (stereo unspecified)
T/C endpoint: mean tumor weight, dose: 62.5 mg/kg/injection, schedule: Q01DX011 (ip), vehicle: Klucel (hydroxypropylcellulose) (HPC), higher T/C = larger tumour
  survivor count: 5 of 8
T/C endpoint: mean tumor weight, dose: 500.0 mg/kg/injection, schedule: Q01DX011 (ip), vehicle: Klucel (hydroxypropylcellulose) (HPC), higher T/C = larger tumour
  survivor count: 3 of 8
T/C endpoint: median survival time, dose: 50.0 mg/kg/injection, schedule: Q01DX011 (ip), vehicle: Klucel (hydroxypropylcellulose) (HPC), higher T/C = longer survival
  T/C: 126 % of control
T/C endpoint: median survival time, dose: 62.5 mg/kg/injection, schedule: Q01DX011 (ip), vehicle: Klucel (hydroxypropylcellulose) (HPC), higher T/C = longer survival
  survivor count: 5 of 8
[1]
  T/C: 130 % of control [7 of 8 alive]
T/C endpoint: median survival time, dose: 200.0 mg/kg/injection, schedule: Q01DX011 (ip), vehicle: Klucel (hydroxypropylcellulose) (HPC), higher T/C = longer survival
  survivor count: 8 of 8
T/C endpoint: median survival time, dose: 400.0 mg/kg/injection, schedule: Q01DX011 (ip), vehicle: Klucel (hydroxypropylcellulose) (HPC), higher T/C = longer survival
  survivor count: 3 of 8 and 7 of 8
T/C endpoint: median survival time, dose: 500.0 mg/kg/injection, schedule: Q01DX011 (ip), vehicle: Klucel (hydroxypropylcellulose) (HPC), higher T/C = longer survival
  survivor count: 3 of 8
T/C endpoint: median survival time, dose: 800.0 mg/kg/injection, schedule: Q01DX011 (ip), vehicle: Klucel (hydroxypropylcellulose) (HPC), higher T/C = longer survival
  survivor count: 0 of 8 (3×)

## CC(CN1CC(=O)NC(=O)C1)N1CC(=O)NC(=O)C1 (stereo unspecified)
T/C endpoint: mean tumor weight, dose: 50.0 mg/kg/injection, schedule: Q01DX017 (ip), vehicle: Klucel (hydroxypropylcellulose) (HPC), higher T/C = larger tumour
  survivor count: 4 of 8
T/C endpoint: mean tumor weight, dose: 100.0 mg/kg/injection, schedule: Q01DX009 (ip), vehicle: Klucel (hydroxypropylcellulose) (HPC), higher T/C = larger tumour
  survivor count: 2 of 8
T/C endpoint: mean tumor weight, dose: 100.0 mg/kg/injection, schedule: Q01DX011 (ip), vehicle: steroid suspending solution, higher T/C = larger tumour
  survivor count: 2 of 8
T/C endpoint: mean tumor weight, dose: 100.0 mg/kg/injection, schedule: Q01DX017 (ip), vehicle: Klucel (hydroxypropylcellulose) (HPC), higher T/C = larger tumour
  survivor count: 2 of 8
T/C endpoint: mean tumor weight, dose: 400.0 mg/kg/injection, schedule: Q04DX003 (ip), vehicle: Klucel (hydroxypropylcellulose) (HPC), higher T/C = larger tumour
  survivor count: 2 of 5
T/C endpoint: median survival time, dose: 12.5 mg/kg/injection, schedule: Q01DX011 (ip), vehicle: steroid suspending solution, evaluated on day 39, higher T/C = longer survival
  T/C: 140 % of control [7 of 8 alive]
T/C endpoint: median survival time, dose: 12.5 mg/kg/injection, schedule: Q01DX011 (ip), vehicle: steroid suspending solution, evaluated on day 45, higher T/C = longer survival
  T/C: 127 % of control [7 of 8 alive]
T/C endpoint: median survival time, dose: 25.0 mg/kg/injection, schedule: Q01DX011 (ip), vehicle: steroid suspending solution, evaluated on day 39, higher T/C = longer survival
  T/C: 142 % of control
T/C endpoint: median survival time, dose: 25.0 mg/kg/injection, schedule: Q01DX011 (ip), vehicle: steroid suspending solution, evaluated on day 57, higher T/C = longer survival
  T/C: 101 and 129 % of control
T/C endpoint: median survival time, dose: 25.0 mg/kg/injection, schedule: Q01DX011 (ip), vehicle: steroid suspending solution, higher T/C = longer survival
  survivor count: 6 of 8
T/C endpoint: median survival time, dose: 25.0 mg/kg/injection, schedule: Q01DX017 (ip), vehicle: Klucel (hydroxypropylcellulose) (HPC), higher T/C = longer survival
  survivor count: 8 of 8
T/C endpoint: median survival time, dose: 30.0 mg/kg/injection, schedule: Q01DX011 (ip), vehicle: carboxymethylcellulose (CMC), higher T/C = longer survival
  survivor count: 10 of 10
T/C endpoint: median survival time, dose: 50.0 mg/kg/injection, schedule: Q01DX011 (ip), vehicle: steroid suspending solution, evaluated on day 39, higher T/C = longer survival
  T/C: 135 % of control
T/C endpoint: median survival time, dose: 50.0 mg/kg/injection, schedule: Q01DX011 (ip), vehicle: steroid suspending solution, evaluated on day 45, higher T/C = longer survival
  T/C: 127 % of control [6 of 8 alive]
T/C endpoint: median survival time, dose: 50.0 mg/kg/injection, schedule: Q01DX011 (ip), vehicle: steroid suspending solution, evaluated on day 57, higher T/C = longer survival
  T/C: 157 % of control
T/C endpoint: median survival time, dose: 50.0 mg/kg/injection, schedule: Q01DX011 (ip), vehicle: steroid suspending solution, higher T/C = longer survival
  survivor count: 7 of 8
T/C endpoint: median survival time, dose: 50.0 mg/kg/injection, schedule: Q01DX017 (ip), vehicle: Klucel (hydroxypropylcellulose) (HPC), higher T/C = longer survival
  survivor count: 4 of 8
T/C endpoint: median survival time, dose: 50.0 mg/kg/injection, schedule: Q04DX004 (ip), vehicle: Klucel (hydroxypropylcellulose) (HPC), evaluated on day 10, higher T/C = longer survival
  T/C: 110 % of control
T/C endpoint: median survival time, dose: 50.0 mg/kg/injection, schedule: Q04DX004 (ip), vehicle: Klucel (hydroxypropylcellulose) (HPC), evaluated on day 13, higher T/C = longer survival
  T/C: 100 % of control
T/C endpoint: median survival time, dose: 50.0 mg/kg/injection, schedule: Q04DX004 (ip), vehicle: Klucel (hydroxypropylcellulose) (HPC), evaluated on day 60, higher T/C = longer survival
  T/C: 100 % of control [9 of 10 alive]
T/C endpoint: median survival time, dose: 50.0 mg/kg/injection, schedule: Q04DX004 (ip), vehicle: Klucel (hydroxypropylcellulose) (HPC), evaluated on day 62, higher T/C = longer survival
  T/C: 110 % of control
T/C endpoint: median survival time, dose: 60.0 mg/kg/injection, schedule: Q01DX011 (ip), vehicle: carboxymethylcellulose (CMC), higher T/C = longer survival
  survivor count: 5 of 10 and 9 of 10
T/C endpoint: median survival time, dose: 100.0 mg/kg/injection, schedule: Q01DX009 (ip), vehicle: Klucel (hydroxypropylcellulose) (HPC), higher T/C = longer survival
  survivor count: 2 of 8
[1]
  survivor count: 0 of 8
T/C endpoint: median survival time, dose: 100.0 mg/kg/injection, schedule: Q01DX011 (ip), vehicle: steroid suspending solution, higher T/C = longer survival
  survivor count: 1 of 8 and 2 of 8
T/C endpoint: median survival time, dose: 100.0 mg/kg/injection, schedule: Q01DX017 (ip), vehicle: Klucel (hydroxypropylcellulose) (HPC), higher T/C = longer survival
  survivor count: 2 of 8
T/C endpoint: median survival time, dose: 100.0 mg/kg/injection, schedule: Q04DX004 (ip), vehicle: Klucel (hydroxypropylcellulose) (HPC), evaluated on day 10, higher T/C = longer survival
  T/C: 128 % of control
T/C endpoint: median survival time, dose: 100.0 mg/kg/injection, schedule: Q04DX004 (ip), vehicle: Klucel (hydroxypropylcellulose) (HPC), evaluated on day 13, higher T/C = longer survival
  T/C: 109 % of control
T/C endpoint: median survival time, dose: 100.0 mg/kg/injection, schedule: Q04DX004 (ip), vehicle: Klucel (hydroxypropylcellulose) (HPC), evaluated on day 60, higher T/C = longer survival
  T/C: 109 % of control
T/C endpoint: median survival time, dose: 100.0 mg/kg/injection, schedule: Q04DX004 (ip), vehicle: Klucel (hydroxypropylcellulose) (HPC), evaluated on day 62, higher T/C = longer survival
  T/C: 128 % of control
T/C endpoint: median survival time, dose: 120.0 mg/kg/injection, schedule: Q01DX011 (ip), vehicle: carboxymethylcellulose (CMC), higher T/C = longer survival
  survivor count: 1 of 10 and 6 of 10
T/C endpoint: median survival time, dose: 200.0 mg/kg/injection, schedule: Q04DX004 (ip), vehicle: Klucel (hydroxypropylcellulose) (HPC), evaluated on day 10, higher T/C = longer survival
  T/C: 126 % of control
T/C endpoint: median survival time, dose: 200.0 mg/kg/injection, schedule: Q04DX004 (ip), vehicle: Klucel (hydroxypropylcellulose) (HPC), evaluated on day 13, higher T/C = longer survival
  T/C: 97 % of control
T/C endpoint: median survival time, dose: 200.0 mg/kg/injection, schedule: Q04DX004 (ip), vehicle: Klucel (hydroxypropylcellulose) (HPC), evaluated on day 60, higher T/C = longer survival
  T/C: 97 % of control
T/C endpoint: median survival time, dose: 200.0 mg/kg/injection, schedule: Q04DX004 (ip), vehicle: Klucel (hydroxypropylcellulose) (HPC), evaluated on day 62, higher T/C = longer survival
  T/C: 126 % of control
T/C endpoint: median survival time, dose: 240.0 mg/kg/injection, schedule: Q01DX011 (ip), vehicle: carboxymethylcellulose (CMC), higher T/C = longer survival
  survivor count: 0 of 10 and 2 of 10
T/C endpoint: median survival time, dose: 400.0 mg/kg/injection, schedule: Q01DX001 (ip), vehicle: steroid suspending solution, higher T/C = longer survival
  survivor count: 7 of 8
[2]
  T/C: 147 % of control
  survivor count: 5 of 8
T/C endpoint: median survival time, dose: 400.0 mg/kg/injection, schedule: Q04DX004 (ip), vehicle: Klucel (hydroxypropylcellulose) (HPC), evaluated on day 10, higher T/C = longer survival
  T/C: 136 % of control
T/C endpoint: median survival time, dose: 400.0 mg/kg/injection, schedule: Q04DX004 (ip), vehicle: Klucel (hydroxypropylcellulose) (HPC), evaluated on day 13, higher T/C = longer survival
  T/C: 100 % of control
T/C endpoint: median survival time, dose: 400.0 mg/kg/injection, schedule: Q04DX004 (ip), vehicle: Klucel (hydroxypropylcellulose) (HPC), evaluated on day 60, higher T/C = longer survival
  T/C: 100 % of control [8 of 10 alive]
T/C endpoint: median survival time, dose: 400.0 mg/kg/injection, schedule: Q04DX004 (ip), vehicle: Klucel (hydroxypropylcellulose) (HPC), evaluated on day 62, higher T/C = longer survival
  T/C: 136 % of control [9 of 10 alive]
T/C endpoint: median survival time, dose: 400.0 mg/kg/injection, schedule: Q04DX005 (ip), vehicle: Klucel (hydroxypropylcellulose) (HPC), higher T/C = longer survival
  survivor count: 7 of 8
T/C endpoint: median survival time, dose: 800.0 mg/kg/injection, schedule: Q04DX003 (ip), vehicle: Klucel (hydroxypropylcellulose) (HPC), higher T/C = longer survival
  survivor count: 0 of 8

## OCCNC1c2ccccc2-c2ccccc21
T/C endpoint: mean tumor weight (est.), dose: 200.0 mg/kg/injection, schedule: Q01DX011 (ip), vehicle: saline with Tween-80, higher T/C = larger tumour
  survivor count: 5 of 8
T/C endpoint: median survival time, dose: 25.0 mg/kg/injection, schedule: Q01DX011 (ip), vehicle: saline with Tween-80, higher T/C = longer survival
  survivor count: 8 of 8
T/C endpoint: median survival time, dose: 100.0 mg/kg/injection, schedule: Q01DX011 (ip), vehicle: saline with Tween-80, higher T/C = longer survival
  survivor count: 6 of 8
T/C endpoint: median survival time, dose: 200.0 mg/kg/injection, schedule: Q01DX011 (ip), vehicle: saline with Tween-80, higher T/C = longer survival
  survivor count: 5 of 8

## C=CCNC(=O)NCC=C
T/C endpoint: mean tumor weight, dose: 3.12 mg/kg/injection, schedule: Q01DX011 (ip), vehicle: saline with Tween-80, higher T/C = larger tumour
  survivor count: 5 of 8
T/C endpoint: median survival time, dose: 3.12 mg/kg/injection, schedule: Q01DX011 (ip), vehicle: saline with Tween-80, higher T/C = longer survival
  survivor count: 5 of 8

## CCCCOc1ccc(NC(N)=Nc2ccc(Cl)cc2)cc1
T/C endpoint: median survival time, dose: 50.0 mg/kg/injection, schedule: Q01DX011 (ip), vehicle: saline with Tween-80, higher T/C = longer survival
  survivor count: 0 of 8
